In PubChem BioAssay AID435023 (Broad Institute, 2010) one finds activity change, negative = inhibition data, which are given here for twelve compounds.

Sequences of proteins named here, by UniProt entry; tags and fusion partners are left off. A change or cut given only in a name is not applied to a line headed by its entry.
UniProt Q9QR71: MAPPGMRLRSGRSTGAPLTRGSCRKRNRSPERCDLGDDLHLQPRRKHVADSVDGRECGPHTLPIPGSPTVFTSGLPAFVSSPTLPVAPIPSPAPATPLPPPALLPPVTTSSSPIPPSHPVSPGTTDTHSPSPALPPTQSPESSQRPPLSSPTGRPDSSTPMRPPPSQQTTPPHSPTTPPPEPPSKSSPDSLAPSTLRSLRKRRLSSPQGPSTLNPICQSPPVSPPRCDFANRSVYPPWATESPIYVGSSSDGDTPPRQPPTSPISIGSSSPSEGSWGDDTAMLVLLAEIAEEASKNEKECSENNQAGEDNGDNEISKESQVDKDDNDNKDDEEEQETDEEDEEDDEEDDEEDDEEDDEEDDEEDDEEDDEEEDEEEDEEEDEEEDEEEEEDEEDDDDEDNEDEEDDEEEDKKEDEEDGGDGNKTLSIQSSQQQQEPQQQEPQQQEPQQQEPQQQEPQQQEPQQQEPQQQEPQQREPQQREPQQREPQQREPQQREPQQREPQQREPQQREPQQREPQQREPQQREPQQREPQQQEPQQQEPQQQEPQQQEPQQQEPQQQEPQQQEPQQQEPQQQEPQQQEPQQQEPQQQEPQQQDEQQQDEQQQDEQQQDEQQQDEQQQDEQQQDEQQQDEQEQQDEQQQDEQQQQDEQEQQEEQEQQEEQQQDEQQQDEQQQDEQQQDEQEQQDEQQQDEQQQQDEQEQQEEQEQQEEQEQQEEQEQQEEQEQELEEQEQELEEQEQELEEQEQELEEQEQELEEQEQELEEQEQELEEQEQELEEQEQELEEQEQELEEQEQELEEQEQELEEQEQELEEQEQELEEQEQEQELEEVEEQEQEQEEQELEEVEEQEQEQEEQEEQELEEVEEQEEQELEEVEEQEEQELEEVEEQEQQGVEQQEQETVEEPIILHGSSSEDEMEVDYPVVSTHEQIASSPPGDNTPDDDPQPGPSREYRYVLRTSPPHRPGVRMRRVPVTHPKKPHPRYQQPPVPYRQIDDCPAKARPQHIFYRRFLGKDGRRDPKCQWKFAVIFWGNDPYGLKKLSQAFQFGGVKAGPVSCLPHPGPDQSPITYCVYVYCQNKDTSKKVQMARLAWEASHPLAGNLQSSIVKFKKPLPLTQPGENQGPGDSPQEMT

The median lay at about -31%. Some of the results follow. Results with a measured potency or affinity are listed apart. The source made no clear call on entries shown without one.

The assay addresses Protein LANA1 (Human herpesvirus 8 type P (isolate GK18)) (UniProt Q9QR71). Nature of the assay: disruption of KSHV LANA peptide–nucleosome binding – biochemical, fluorescence polarization, cell-free, retest, dose response (AID 435023). The settings on record: at 7.5 µM (top of the series) unless noted.
With `CC(NCC(=O)Nc1ccccc1C(=O)NC1CC1)c1cccc(C(F)(F)F)c1` (configuration not stated), the activity change, negative = inhibition is -14.2%.

Turning to `CCOC(=O)C1(Cc2ccccc2)CCN(Cc2cccn2-c2nccs2)CC1`, the activity change, negative = inhibition is 28.6%.

As to `CC(NC(=O)C(=O)NN=C1CCCCCCCCCCC1)c1ccccc1` (configuration not stated), the activity change, negative = inhibition was -25.4%.

For `CC(C)C1N=C2c3ccccc3N=C(SCC(=O)c3ccc(O)c(O)c3)N2C1=O` (configuration not stated), the activity change, negative = inhibition was -31.4%.

In the case of `COc1ccc(-n2c(O)c(/C=C3\C=Nc4ccc(Br)cc43)c(=O)[nH]c2=O)cc1`, the activity change, negative = inhibition was -41.4%.

On to `COc1cccc(Cn2cc(C)cc(NC(=O)NCc3ccccc3)c2=O)c1`, for which the activity change, negative = inhibition is -35.4%.

On to `CCOc1ccccc1OCCCCN1CCCC1`, for which the activity change, negative = inhibition is -31.9%.

As for `O=C(CC(c1ccccc1)(c1ccccc1)c1ccccc1)N[C@@H](Cc1ccccc1)C(=O)O`, the activity change, negative = inhibition was found to be 24.1%.

`CN1CCN(C(=O)C2=C[C@H](c3ccc(Br)cc3)C[C@H](OCCCCO)O2)CC1`: the activity change, negative = inhibition was -7.26% [at 3.8 µM].

As to `CCC(C(=O)NC1CC1)n1nc(C)c2c(C)n(-c3ccccc3)nc2c1=O` (configuration not stated), the activity change, negative = inhibition was -59.6%.

On to `CCOc1ccccc1NC(=O)NCCN1CCCCC1`, for which the activity change, negative = inhibition is -35.3%.

For the compound `CCOC(=O)C(C)On1c(-c2cccc(Cl)c2)nc2ccc([N+](=O)[O-])cc21` (configuration not stated), the activity change, negative = inhibition was 34.8%.
